In PubChem BioAssay AID493014 (National Center for Advancing Translational Sciences (NCATS), 2011):
Among all 340,000 compounds or so, about 170 (0.05%) were called active. This list was built around the results that the source calls inconclusive (neither active nor inactive); the mix of calls is not that of the screen. Calls come from the whole dose curve; as a rule, active = well fitted inhibition curve with a large enough effect in the signal ratio, with a control signal flat (not every such curve was filed as active); inconclusive = small, poorly fitted or top-dose-only effect, or effect the other way, or a change in a side signal; inactive = flat fitted curve, though single readings scatter; the % refers to the signal ratio. A potency beside an inconclusive call is a rough fit, not a confirmed value.

test: qHTS Assay to Find Inhibitors of Chronic Active B-Cell Receptor Signaling; details: ABC-DLBCL IkBa-CBG/CBR reporter, luminescence ratio (green luciferase fused to IkBa over red control in TMD8 lymphoma cells), 4 h; activity change, negative = inhibition: at 46.1 µM (top of the series);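 for activity change, negative = inhibition: plate controls were basal doxycycline-induced cells for no effect and cells given 10 µM MG132 for full effect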
Procedure, shortened: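 Doxycycline induced both beetle luciferases in TMD8 lymphoma cells; IKK-driven degradation limits the IkappaBalpha-fused green signal, while red luminescence normalises for cell number and nonspecific effects. Compounds tested up to 46 uM, 4 hrs.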
Potency is the fitted concentration of half-maximal effect.

SMILES | activity change, negative = inhibition | Potency
CCOc1ccccc1NC(=O)CSc1nc2ccccc2c2nc(CCn3cncc3C)nn12 | inactive: -6.88% | –
COc1cc(/C=C(\C#N)c2ccccn2)ccc1OCC(=O)Nc1cccc(C(F)(F)F)c1 | inactive: 0.472% | –
COc1cc(C=C2C(=O)c3ccccc3C2=O)ccc1O | – | inconclusive: 35.5 µM [falling, single point]
COC(=O)c1ccc(C(=O)OC)c(NC2=NS(=O)(=O)c3ccccc32)c1 | inconclusive: 16.3% | –
COc1ccccc1N1CCN(C/C(C)=C/c2ccccc2)CC1 | inactive: 8.89% | –
Cc1ccc(-c2nc3scc(CCNC(=O)c4cccc(Br)c4)n3n2)cc1 | inconclusive: 18.3% | –
O=C(N/N=C/c1cn(Cc2ccccc2)c2ccccc12)c1cc(O)cc(O)c1 | – | inconclusive: 35.5 µM [falling, single point]
S=c1[nH]c2cc(Cl)ccc2s1 | inconclusive: 9.26% | –
CCCCC(=O)Nc1cccc(-c2nc3ncccc3o2)c1 | inactive: 0.301% | –
Cc1nn(C)c(Oc2cccc(Cl)c2)c1C(=O)Nc1ccc(F)cc1F | – | inconclusive: 12.6 µM [rising, partial curve, poor fit]
CCOC(=O)c1nnn(CC(=O)Nc2cccc(Cl)c2C)c1C(=O)OCC | inactive: -2.89% | –
O=C(COC(=O)c1cc(=O)[nH]c2ccc(Br)cc12)c1ccccc1 | – | inconclusive: 8.91 µM [falling, partial curve, poor fit]
COc1ccc(C(NC(=O)c2ccco2)c2ccc(OC)c(OC)c2)cc1 (stereo not given) | inconclusive: -1.08% | –
C=CCn1c(SCc2ccc(C#N)cc2)nnc1-c1ccccc1 | – | inconclusive: 8.2 µM [rising, partial curve, poor fit]
O=C(CN1CCCC1)Nc1sc2c(c1C(=O)Nc1ccc(Br)cc1)CCC2 | inconclusive: 12.3% | –
O=C(Cc1cccs1)NCc1ccccc1Br | inactive: -5.35% | –
O=C(NCCN1CCOCC1)c1cc(-c2ccccc2Cl)on1 | inconclusive: 3.7% | –
CCOC(=O)c1cn(CC)c2c(ccc3ccccc32)c1=O | inconclusive: 0.608% | –
O=C(COc1ccc(Cl)cc1Cl)Nc1ccc(S(=O)(=O)NC2=NCCCCC2)cc1 | – | inconclusive: 16.4 µM [falling, single point]
COc1cc(C=O)ccc1OCCOCCOc1ccccc1Cl | inconclusive: 5.88% | –
COc1ccc(C(=O)Nc2ccc3ccccc3c2)cc1OC | – | inconclusive: 22.4 µM [falling, partial curve]
CCS(=O)(=O)Nc1ccc(-c2ccc(NS(=O)(=O)CC)c(OC)c2)cc1OC | inactive: -8.29% | –
Cc1onc(-c2c(F)cccc2Cl)c1C(=O)OCC(=O)NC(=O)NCC(C)C | inactive: -5.74% | –
COc1ccc(C)cc1-n1c(SCC(=O)NC2CC2)nc2ccccc2c1=O | inconclusive: -6.46% | –
Cc1ccc(S(=O)(=O)N(C)c2ccc(OC(=O)c3ccc(=O)[nH]c3)cc2)cc1 | inconclusive: -7.59% | –

SMILES | activity change, negative = inhibition | Potency
Cc1ccnc(Nc2nc(-c3ccccc3)cs2)c1 | – | inconclusive: 15.8 µM [falling, partial curve]
COc1ccc(NC(=O)c2cccc(Oc3ccc([N+](=O)[O-])cc3Cl)c2)cc1 | – | inconclusive: 18.4 µM [falling, single point]
Cc1c(C(=O)NN2CCOCC2)oc2c1ccc1ccccc12 | – | inconclusive: 5.01 µM [rising, partial curve]
COc1ccccc1CC(=O)N1CCC(n2nccc2NC(=O)C2CCOC2)CC1 (stereo not given) | inconclusive: -1.37% | –
Cc1cc(C(=O)NNC(=O)c2ccc(Cl)cc2)no1 | – | inconclusive: 31.6 µM [falling, single point]
C=CCn1c(SCC(=O)c2cc(C)n(Cc3cccs3)c2C)nnc1-c1ccncc1 | inconclusive: 3.7% | –
COc1ccc(/C=N/NC(=O)c2ccc(C)nc2)cc1O | inconclusive: 5.12% | –
Nc1ccc(NC(=O)c2cccs2)cc1 | – | inconclusive: 17.8 µM [falling, partial curve]
O=c1[nH]c2cc3c(cc2cc1CN(CCc1ccccc1)Cc1nnnn1C1CCCC1)OCCO3 | inconclusive: 1.09% | –
O=C(Nc1ccc(C(=O)O)cc1)Nc1ccc(F)cc1F | – | inconclusive: 25.1 µM [falling, partial curve]
Clc1ccc(-c2cnc3n2CCC3)cc1 | – | inconclusive: 20 µM [falling, partial curve]
Cc1ccccc1OCC(=O)Nc1sc2c(c1C#N)CC(C)(C)NC2(C)C | inconclusive: -18.7% | –
O=C(NCCc1c[nH]c2ccccc12)c1ccc2nc[nH]c2c1 | – | inconclusive: 29.1 µM [falling, single point]
O=C(c1ccc(Br)o1)N1CCN(c2ncccn2)CC1 | inconclusive: 28.6% | –
O=C(Nc1ccncc1)c1cc2ccccc2cc1O | – | inconclusive: 5.17 µM [falling, single point]
COC(=O)c1ccccc1NC(=O)c1nc2nc(C)cc(C)n2n1 | – | inconclusive: 11.6 µM [falling, partial curve, poor fit]
Cc1ccc(-c2nc(NCc3ccco3)n(C(=O)c3ccco3)n2)cc1 | inconclusive: 5.88% | –
CCCCCCOC(=O)C[N+](C)(C)CCOC1CC2CCC1(C)C2(C)C (stereo not given) | inconclusive: 27.1% | –
COc1ccc(CN(C(=O)c2snc(C(N)=O)c2N)C(CC(C)C)C(=O)NC2CCCCC2)cc1 (stereo not given) | inactive: 6.96% | –
CN(CC(=O)Nc1ccc(Cl)cc1)CC(=O)Nc1cccc2ccccc12 | inconclusive: -9.43% | –
CN1CCC2(CC1)N=C(c1ccc(F)cc1)C(=S)N2C(=O)c1ccccc1 | – | inconclusive: 20.6 µM [falling, single point]
CCOC(=O)c1ccc(N2CCN(C(=O)c3ccccc3)CC2)c(NC(=O)c2ccco2)c1 | inconclusive: 8.89% | –
O=C(Nc1nc(-c2cc(Cl)sc2Cl)cs1)c1ccccc1 | – | inconclusive: 0.116 µM [rising, full curve, poor fit]
C/C(=N\OCc1cccc(C(=O)O)c1)c1ccc(Cl)cc1 | inconclusive: 365% | –
CCCCn1c(NCc2cccs2)nc2ccccc21 | inconclusive: 1.8% | –

Some of these compounds in order of heavy-atom count, rising.
SMILES | activity change, negative = inhibition | Potency
Clc1ccc(-c2cnc3n2CCC3)cc1 | – | inconclusive: 20 µM [falling, partial curve]
Cc1ccc(-c2nc(NCc3ccco3)n(C(=O)c3ccco3)n2)cc1 | inconclusive: 5.88% | –
COc1ccccc1CC(=O)N1CCC(n2nccc2NC(=O)C2CCOC2)CC1 (stereo not given) | inconclusive: -1.37% | –
